From the supplement of paper PMC12823440, “Inhibitors supercharge kinase turnover through native proteolytic circuits” (Nature, 2025)
Where a name gives a salt, the structure may show the parent alone. The list shows a part of the results. Hit calls seldom repeat between salt and free forms of one compound.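 In K562 cells expressing nanoluciferase-fused kinases, luminescence was recorded at 4 h intervals between 2 and 18 h, normalized as percent of control with DMSO at 100% and a positive control at 0%. A significant (2 sigma) signal drop marks a time point as decreased. The authors' rule for a hit is not shown and takes in more than the number of time points.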

The chains behind the UniProt entries cited, without tags or fusion partners. Where a name states a change or a piece, a line headed by the entry shows the natural chain unless it says otherwise.
UniProt Q9UM73: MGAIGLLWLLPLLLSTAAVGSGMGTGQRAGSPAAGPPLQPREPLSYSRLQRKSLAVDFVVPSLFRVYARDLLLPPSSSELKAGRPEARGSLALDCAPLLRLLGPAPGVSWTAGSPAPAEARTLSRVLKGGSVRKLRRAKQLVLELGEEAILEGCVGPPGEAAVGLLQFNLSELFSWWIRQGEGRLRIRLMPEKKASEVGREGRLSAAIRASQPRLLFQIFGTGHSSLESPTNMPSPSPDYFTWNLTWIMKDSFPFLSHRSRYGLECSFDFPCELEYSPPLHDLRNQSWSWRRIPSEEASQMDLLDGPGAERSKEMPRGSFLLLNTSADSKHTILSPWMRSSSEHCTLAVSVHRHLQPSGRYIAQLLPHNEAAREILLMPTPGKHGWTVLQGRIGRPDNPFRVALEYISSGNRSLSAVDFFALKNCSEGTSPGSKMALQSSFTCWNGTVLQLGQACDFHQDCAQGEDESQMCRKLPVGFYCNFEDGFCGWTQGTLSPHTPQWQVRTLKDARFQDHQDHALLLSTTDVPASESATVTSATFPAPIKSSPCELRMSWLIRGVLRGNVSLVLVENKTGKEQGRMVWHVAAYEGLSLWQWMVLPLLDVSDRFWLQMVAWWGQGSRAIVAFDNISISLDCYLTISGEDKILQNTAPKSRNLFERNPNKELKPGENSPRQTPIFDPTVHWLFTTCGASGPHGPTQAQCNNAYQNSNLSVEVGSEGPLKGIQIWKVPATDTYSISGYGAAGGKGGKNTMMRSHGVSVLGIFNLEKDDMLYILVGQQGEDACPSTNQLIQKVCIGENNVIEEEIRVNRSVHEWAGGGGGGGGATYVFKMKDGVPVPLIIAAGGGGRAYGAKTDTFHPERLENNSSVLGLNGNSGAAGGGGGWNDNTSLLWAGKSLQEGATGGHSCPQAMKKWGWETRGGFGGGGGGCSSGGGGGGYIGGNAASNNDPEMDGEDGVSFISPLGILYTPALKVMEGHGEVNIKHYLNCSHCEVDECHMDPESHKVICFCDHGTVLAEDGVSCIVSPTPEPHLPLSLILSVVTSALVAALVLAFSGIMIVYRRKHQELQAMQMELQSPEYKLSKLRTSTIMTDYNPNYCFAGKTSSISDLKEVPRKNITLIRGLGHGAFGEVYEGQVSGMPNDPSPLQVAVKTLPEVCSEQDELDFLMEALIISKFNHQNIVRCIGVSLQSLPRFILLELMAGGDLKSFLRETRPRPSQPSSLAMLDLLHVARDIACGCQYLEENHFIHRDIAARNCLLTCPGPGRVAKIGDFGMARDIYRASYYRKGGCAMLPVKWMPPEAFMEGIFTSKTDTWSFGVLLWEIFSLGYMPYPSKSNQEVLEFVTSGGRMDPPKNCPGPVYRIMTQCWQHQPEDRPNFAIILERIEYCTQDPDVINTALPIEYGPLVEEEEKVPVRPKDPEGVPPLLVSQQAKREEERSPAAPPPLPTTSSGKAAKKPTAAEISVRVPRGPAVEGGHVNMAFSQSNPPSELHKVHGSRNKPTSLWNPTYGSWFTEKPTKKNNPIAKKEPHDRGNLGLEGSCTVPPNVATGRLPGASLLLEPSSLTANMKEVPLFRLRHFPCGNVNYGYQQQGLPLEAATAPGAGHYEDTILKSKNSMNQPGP
UniProt P10398: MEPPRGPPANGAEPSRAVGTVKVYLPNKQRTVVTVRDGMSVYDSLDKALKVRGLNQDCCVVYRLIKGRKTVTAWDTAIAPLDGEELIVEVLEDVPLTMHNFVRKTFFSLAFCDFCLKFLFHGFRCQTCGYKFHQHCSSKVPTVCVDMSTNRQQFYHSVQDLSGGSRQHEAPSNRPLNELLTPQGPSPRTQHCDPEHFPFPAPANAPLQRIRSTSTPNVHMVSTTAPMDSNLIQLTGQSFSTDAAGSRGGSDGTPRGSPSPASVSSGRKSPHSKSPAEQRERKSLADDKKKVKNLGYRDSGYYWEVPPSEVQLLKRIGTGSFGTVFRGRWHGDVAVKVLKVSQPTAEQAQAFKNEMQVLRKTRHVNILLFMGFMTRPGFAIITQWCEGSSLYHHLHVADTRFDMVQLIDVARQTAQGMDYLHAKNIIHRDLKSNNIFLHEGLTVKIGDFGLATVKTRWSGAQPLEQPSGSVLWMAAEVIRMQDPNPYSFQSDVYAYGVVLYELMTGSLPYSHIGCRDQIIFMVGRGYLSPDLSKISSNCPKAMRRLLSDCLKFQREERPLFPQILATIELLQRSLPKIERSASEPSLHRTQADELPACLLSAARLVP
UniProt Q96GD4, whole entry: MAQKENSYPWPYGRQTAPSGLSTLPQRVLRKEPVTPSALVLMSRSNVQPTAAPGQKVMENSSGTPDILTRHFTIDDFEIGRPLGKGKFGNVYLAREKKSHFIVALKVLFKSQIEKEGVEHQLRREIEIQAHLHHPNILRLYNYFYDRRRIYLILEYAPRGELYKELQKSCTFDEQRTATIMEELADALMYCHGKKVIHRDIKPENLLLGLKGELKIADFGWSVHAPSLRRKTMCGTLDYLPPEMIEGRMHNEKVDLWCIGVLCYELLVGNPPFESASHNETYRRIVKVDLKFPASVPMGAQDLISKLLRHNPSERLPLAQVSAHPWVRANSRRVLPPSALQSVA
UniProt P51451: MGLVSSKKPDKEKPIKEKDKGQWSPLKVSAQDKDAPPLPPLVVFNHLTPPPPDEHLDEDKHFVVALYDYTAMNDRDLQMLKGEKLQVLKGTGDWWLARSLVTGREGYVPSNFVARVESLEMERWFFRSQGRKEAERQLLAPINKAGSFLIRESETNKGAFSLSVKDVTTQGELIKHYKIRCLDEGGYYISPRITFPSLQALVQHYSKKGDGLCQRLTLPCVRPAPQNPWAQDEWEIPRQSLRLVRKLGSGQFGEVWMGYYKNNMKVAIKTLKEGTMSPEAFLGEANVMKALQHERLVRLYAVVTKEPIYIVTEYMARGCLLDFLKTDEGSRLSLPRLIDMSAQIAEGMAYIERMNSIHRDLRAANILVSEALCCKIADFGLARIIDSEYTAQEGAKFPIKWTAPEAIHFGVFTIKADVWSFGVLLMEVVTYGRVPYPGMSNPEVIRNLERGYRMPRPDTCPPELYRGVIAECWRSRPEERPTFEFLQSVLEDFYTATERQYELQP
UniProt P51813: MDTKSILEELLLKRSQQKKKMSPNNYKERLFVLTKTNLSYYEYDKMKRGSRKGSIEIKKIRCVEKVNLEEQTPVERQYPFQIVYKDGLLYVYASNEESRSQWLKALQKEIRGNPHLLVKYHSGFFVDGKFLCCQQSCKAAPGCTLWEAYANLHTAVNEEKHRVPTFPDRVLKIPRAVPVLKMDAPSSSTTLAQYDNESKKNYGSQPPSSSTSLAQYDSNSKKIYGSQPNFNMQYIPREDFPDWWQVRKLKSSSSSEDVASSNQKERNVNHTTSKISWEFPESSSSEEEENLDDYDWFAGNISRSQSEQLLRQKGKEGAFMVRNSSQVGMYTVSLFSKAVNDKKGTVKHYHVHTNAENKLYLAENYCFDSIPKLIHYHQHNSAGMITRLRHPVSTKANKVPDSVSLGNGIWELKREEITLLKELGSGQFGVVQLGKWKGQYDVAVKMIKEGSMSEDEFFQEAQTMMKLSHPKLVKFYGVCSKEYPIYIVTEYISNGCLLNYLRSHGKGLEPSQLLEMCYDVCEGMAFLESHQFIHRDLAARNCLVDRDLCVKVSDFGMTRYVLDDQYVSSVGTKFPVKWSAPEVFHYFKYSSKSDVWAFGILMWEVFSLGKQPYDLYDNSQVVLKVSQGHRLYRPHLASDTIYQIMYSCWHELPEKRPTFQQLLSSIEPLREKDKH
UniProt P15056, whole entry, looked up: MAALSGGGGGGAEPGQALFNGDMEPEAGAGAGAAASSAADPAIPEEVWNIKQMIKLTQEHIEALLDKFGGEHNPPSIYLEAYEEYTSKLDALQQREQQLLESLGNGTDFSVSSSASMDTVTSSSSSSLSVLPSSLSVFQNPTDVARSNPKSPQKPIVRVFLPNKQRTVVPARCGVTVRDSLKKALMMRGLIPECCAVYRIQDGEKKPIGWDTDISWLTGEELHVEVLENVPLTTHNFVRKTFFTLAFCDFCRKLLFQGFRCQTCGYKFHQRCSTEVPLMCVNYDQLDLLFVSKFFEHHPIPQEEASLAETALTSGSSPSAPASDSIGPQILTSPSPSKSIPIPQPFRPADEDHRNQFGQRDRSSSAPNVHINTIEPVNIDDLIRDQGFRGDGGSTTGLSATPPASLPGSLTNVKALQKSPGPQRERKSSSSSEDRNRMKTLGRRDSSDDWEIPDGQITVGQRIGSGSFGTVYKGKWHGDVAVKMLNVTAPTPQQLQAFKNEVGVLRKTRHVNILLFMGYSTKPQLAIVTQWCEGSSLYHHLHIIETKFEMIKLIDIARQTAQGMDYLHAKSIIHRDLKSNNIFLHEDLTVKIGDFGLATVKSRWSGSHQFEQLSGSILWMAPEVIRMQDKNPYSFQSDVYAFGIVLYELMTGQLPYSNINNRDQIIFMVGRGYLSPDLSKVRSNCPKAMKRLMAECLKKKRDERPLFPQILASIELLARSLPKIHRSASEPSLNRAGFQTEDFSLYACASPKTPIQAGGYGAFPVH
UniProt Q06187: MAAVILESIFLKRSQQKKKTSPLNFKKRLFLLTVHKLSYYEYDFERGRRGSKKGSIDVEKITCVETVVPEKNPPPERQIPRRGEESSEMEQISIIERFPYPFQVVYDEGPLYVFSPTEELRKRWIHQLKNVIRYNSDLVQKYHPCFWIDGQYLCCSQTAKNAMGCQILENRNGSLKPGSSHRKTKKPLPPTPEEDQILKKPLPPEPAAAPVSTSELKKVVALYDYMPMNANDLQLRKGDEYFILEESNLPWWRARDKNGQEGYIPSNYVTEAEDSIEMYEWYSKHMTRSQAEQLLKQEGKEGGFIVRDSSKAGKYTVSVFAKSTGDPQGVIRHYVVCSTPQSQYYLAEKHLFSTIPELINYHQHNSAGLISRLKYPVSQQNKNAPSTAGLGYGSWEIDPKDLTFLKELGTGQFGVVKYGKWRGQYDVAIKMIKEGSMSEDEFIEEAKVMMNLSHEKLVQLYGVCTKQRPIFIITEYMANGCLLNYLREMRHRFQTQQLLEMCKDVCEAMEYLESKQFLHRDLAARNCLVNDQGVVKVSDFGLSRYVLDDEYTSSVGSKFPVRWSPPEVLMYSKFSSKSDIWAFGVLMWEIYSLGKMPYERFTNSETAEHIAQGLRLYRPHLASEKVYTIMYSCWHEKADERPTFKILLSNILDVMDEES
UniProt Q15131: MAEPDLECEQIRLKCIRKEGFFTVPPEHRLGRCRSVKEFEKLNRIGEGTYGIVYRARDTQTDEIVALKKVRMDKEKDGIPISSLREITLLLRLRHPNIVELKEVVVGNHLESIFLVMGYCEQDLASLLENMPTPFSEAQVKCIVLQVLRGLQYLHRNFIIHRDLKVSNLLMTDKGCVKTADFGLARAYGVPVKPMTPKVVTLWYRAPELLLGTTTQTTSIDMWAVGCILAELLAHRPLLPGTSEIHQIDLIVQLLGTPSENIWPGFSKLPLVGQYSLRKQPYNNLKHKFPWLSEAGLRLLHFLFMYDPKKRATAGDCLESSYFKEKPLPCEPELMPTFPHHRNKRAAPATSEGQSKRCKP
UniProt Q00526: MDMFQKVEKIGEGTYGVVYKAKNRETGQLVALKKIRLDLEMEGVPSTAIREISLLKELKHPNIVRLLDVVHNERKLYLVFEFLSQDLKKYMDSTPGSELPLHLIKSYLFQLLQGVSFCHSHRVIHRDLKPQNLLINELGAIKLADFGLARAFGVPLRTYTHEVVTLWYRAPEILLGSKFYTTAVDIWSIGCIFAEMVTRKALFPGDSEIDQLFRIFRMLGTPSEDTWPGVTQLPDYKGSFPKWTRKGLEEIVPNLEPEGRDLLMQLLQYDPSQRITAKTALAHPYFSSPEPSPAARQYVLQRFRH
UniProt P11802: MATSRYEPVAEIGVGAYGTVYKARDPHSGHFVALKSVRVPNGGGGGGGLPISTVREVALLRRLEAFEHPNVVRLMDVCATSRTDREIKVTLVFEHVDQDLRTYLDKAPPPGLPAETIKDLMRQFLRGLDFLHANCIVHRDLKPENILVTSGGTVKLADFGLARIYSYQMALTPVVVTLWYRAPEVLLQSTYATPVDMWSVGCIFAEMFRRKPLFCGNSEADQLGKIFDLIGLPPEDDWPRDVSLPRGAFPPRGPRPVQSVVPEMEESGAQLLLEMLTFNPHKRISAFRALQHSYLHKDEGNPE
UniProt Q00534, whole entry: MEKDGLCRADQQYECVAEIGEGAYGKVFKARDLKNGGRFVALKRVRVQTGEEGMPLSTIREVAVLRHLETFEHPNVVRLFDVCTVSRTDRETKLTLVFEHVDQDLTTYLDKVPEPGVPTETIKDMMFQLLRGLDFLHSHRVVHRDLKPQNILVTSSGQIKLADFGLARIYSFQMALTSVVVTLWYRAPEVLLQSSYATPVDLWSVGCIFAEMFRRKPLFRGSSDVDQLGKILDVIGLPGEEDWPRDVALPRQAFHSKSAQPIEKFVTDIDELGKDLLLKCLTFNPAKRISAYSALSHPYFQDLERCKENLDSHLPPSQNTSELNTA

Columns and labels:
Assay in all cases: kinase-Nluc reporter destabilization hit call (1 = scored as downregulated) (binary); higher = compound decreases kinase abundance
Settings in all cases: K562; 2-18 h
[1] = target: ABL1 (UniProt P00519)
[2] = target: AKT1 (UniProt P31749)
[3] = target: ALK (UniProt Q9UM73)
[4] = target: ARAF (UniProt P10398)
[5] = target: AURKA (UniProt O14965)
[6] = target: AURKB (UniProt Q96GD4)
[7] = target: AURKC (UniProt Q9UQB9)
[8] = target: BLK (UniProt P51451)
[9] = target: BMX (UniProt P51813)
[10] = target: BRAF (UniProt P15056)
[11] = system: BRAF_V600E
[12] = target: BTK (UniProt Q06187)
[13] = target: CAMK2A (UniProt Q9UQM7)
[14] = target: CAMK2G (UniProt Q13555)
[15] = target: CDK10 (UniProt Q15131)
[16] = target: CDK2 (UniProt P24941)
[17] = target: CDK3 (UniProt Q00526)
[18] = target: CDK4 (UniProt P11802)
[19] = target: CDK5 (UniProt Q00535)
[20] = target: CDK6 (UniProt Q00534)

Measured: kinase-Nluc reporter destabilization hit call

CN1C(=O)[C@@H](NC(=O)c2cc(Cc3ccccc3)on2)COc2ccccc21 (10 µM)
inactive: [1] 0 | [2] 0 | [3] 0 | [4] 0 | [5] 0 | [6] 0 | [7] 0 | [8] 0 | [9] 0 | [10] 0 | [11] 0 | [12] 0 | [13] 0 | [14] 0 | [15] 0 | [16] 0 | [17] 0 | [18] 0 | [19] 0 | [20] 0

CCOc1cc(N2CCC(O)CC2)ccc1Nc1ncc2c(n1)N(C1CCCC1)CCC(=O)N2C (2.5 µM)
inactive: [1] 0 | [2] 0 | [3] 0 | [4] 0 | [5] 0 | [6] 0 | [7] 0 | [8] 0 | [9] 0 | [10] 0 | [11] 0 | [12] 0 | [13] 0 | [14] 0 | [15] 0 | [16] 0 | [17] 0 | [18] 0 | [19] 0 | [20] 0

CN1CCN(c2ccc(-n3cc(-c4ccncc4OCC4CCNCC4)cn3)cc2)CC1 [MELK-8a (hydrochloride)] (10 µM)
inactive: [1] 0 | [2] 0 | [3] 0 | [4] 0 | [5] 0 | [6] 0 | [7] 0 | [8] 0 | [9] 0 | [10] 0 | [11] 0 | [12] 0 | [13] 0 | [14] 0 | [15] 0 | [16] 0 | [17] 0 | [18] 0 | [19] 0 | [20] 0

Fc1ccc(-c2nc3n(c2-c2ccncc2)CCS3)cc1 (10 µM)
inactive: [1] 0 | [2] 0 | [3] 0 | [4] 0 | [5] 0 | [6] 0 | [7] 0 | [8] 0 | [9] 0 | [10] 0 | [11] 0 | [12] 0 | [13] 0 | [14] 0 | [15] 0 | [16] 0 | [17] 0 | [18] 0 | [19] 0 | [20] 0

CN(C)C(=O)c1cc2cnc(Nc3ccc(N4CCN(CCCCNC(=O)COc5cccc6c5C(=O)N(C5CCC(=O)NC5=O)C6=O)CC4)cn3)nc2n1C1CCCC1 (stereo not given) (10 µM)
inactive: [1] 0 | [2] 0 | [3] 0 | [4] 0 | [5] 0 | [6] 0 | [7] 0 | [8] 0 | [9] 0 | [10] 0 | [11] 0 | [12] 0 | [13] 0 | [14] 0 | [15] 0 | [16] 0 | [17] 0 | [18] 0 | [19] 0 | [20] 0

O=C1OC(COc2ccccc2[N+](=O)[O-])CC1Cc1ccccc1 (stereo not given) (10 µM)
inactive: [1] 0 | [2] 0 | [3] 0 | [4] 0 | [5] 0 | [6] 0 | [7] 0 | [8] 0 | [9] 0 | [10] 0 | [11] 0 | [12] 0 | [13] 0 | [14] 0 | [15] 0 | [16] 0 | [17] 0 | [18] 0 | [19] 0 | [20] 0

Nc1ccc(Sc2nc3ccccc3s2)c(Cl)c1 [KRAS inhibitor-9] (10 µM)
inactive: [1] 0 | [2] 0 | [3] 0 | [4] 0 | [5] 0 | [6] 0 | [7] 0 | [8] 0 | [9] 0 | [10] 0 | [11] 0 | [12] 0 | [13] 0 | [14] 0 | [15] 0 | [16] 0 | [17] 0 | [18] 0 | [19] 0 | [20] 0

O=C(CCl)c1c[nH]c2ccccc12 (2.5 µM)
inactive: [1] 0 | [2] 0 | [3] 0 | [4] 0 | [5] 0 | [6] 0 | [7] 0 | [8] 0 | [9] 0 | [10] 0 | [11] 0 | [12] 0 | [13] 0 | [14] 0 | [15] 0 | [16] 0 | [17] 0 | [18] 0 | [19] 0 | [20] 0

Fetched one by one from the entries so far, 2 records:
CCOc1cc(N2CCC(O)CC2)ccc1Nc1ncc2c(n1)N(C1CCCC1)CCC(=O)N2C (2.5 µM)
inactive: [1] 0 | [2] 0 | [3] 0 | [4] 0 | [5] 0 | [6] 0 | [7] 0 | [8] 0 | [9] 0 | [10] 0 | [11] 0 | [12] 0 | [13] 0 | [14] 0 | [15] 0 | [16] 0 | [17] 0 | [18] 0 | [19] 0 | [20] 0

Fc1ccc(-c2nc3n(c2-c2ccncc2)CCS3)cc1 (10 µM)
inactive: [1] 0 | [2] 0 | [3] 0 | [4] 0 | [5] 0 | [6] 0 | [7] 0 | [8] 0 | [9] 0 | [10] 0 | [11] 0 | [12] 0 | [13] 0 | [14] 0 | [15] 0 | [16] 0 | [17] 0 | [18] 0 | [19] 0 | [20] 0

Continued:

COc1cc2nc(NC3CC3)nc(NC3CCN(C(C)C)CC3)c2cc1OC (10 µM)
inactive: [1] 0 | [2] 0 | [3] 0 | [4] 0 | [5] 0 | [6] 0 | [7] 0 | [8] 0 | [9] 0 | [10] 0 | [11] 0 | [12] 0 | [13] 0 | [14] 0 | [15] 0 | [16] 0 | [17] 0 | [18] 0 | [19] 0 | [20] 0

COc1cc2nnc(C(N)=O)c(Nc3ccc(C)cc3F)c2cc1N1CCN(CCO)CC1 (2.5 µM)
inactive: [1] 0 | [2] 0 | [3] 0 | [4] 0 | [5] 0 | [6] 0 | [7] 0 | [8] 0 | [9] 0 | [10] 0 | [11] 0 | [12] 0 | [13] 0 | [14] 0 | [15] 0 | [16] 0 | [17] 0 | [18] 0 | [19] 0 | [20] 0

CS[C@@]1(C(=O)Nc2ccc3[nH]nc(-c4ccc(OC(C)C)nc4)c3c2)CCN(CC(=O)N2CC=C(c3ccc(-c4ncn(C)n4)cc3)CC2)C1 (2.5 µM)
inactive: [1] 0 | [2] 0 | [3] 0 | [4] 0 | [5] 0 | [6] 0 | [7] 0 | [8] 0 | [9] 0 | [10] 0 | [11] 0 | [12] 0 | [13] 0 | [14] 0 | [15] 0 | [16] 0 | [17] 0 | [18] 0 | [19] 0 | [20] 0

COc1c(Nc2ncc(Cl)c(N[C@H]3[C@@H](C(N)=O)[C@@H]4C=C[C@H]3C4)n2)ccc2c1CC[C@@H](N1CCOCC1)CC2 (10 µM)
inactive: [1] 0 | [2] 0 | [3] 0 | [4] 0 | [5] 0 | [6] 0 | [7] 0 | [8] 0 | [9] 0 | [10] 0 | [11] 0 | [12] 0 | [13] 0 | [14] 0 | [15] 0 | [16] 0 | [17] 0 | [18] 0 | [19] 0 | [20] 0

N#Cc1cc(N2CCC(C(=O)N3N=CC[C@H]3c3cc(F)cc(F)c3)CC2)ncn1 (10 µM)
inactive: [1] 0 | [2] 0 | [3] 0 | [4] 0 | [5] 0 | [6] 0 | [7] 0 | [8] 0 | [9] 0 | [10] 0 | [11] 0 | [12] 0 | [13] 0 | [14] 0 | [15] 0 | [16] 0 | [17] 0 | [18] 0 | [19] 0 | [20] 0

C[C@@H](NC(=O)c1ncnc(N)c1Cl)c1ncc(C(=O)Nc2cc(C(F)(F)F)c(Cl)cn2)s1 (2.5 µM)
inactive: [1] 0 | [2] 0 | [3] 0 | [4] 0 | [5] 0 | [6] 0 | [7] 0 | [8] 0 | [9] 0 | [10] 0 | [11] 0 | [12] 0 | [13] 0 | [14] 0 | [15] 0 | [16] 0 | [17] 0 | [18] 0 | [19] 0 | [20] 0

CN(C[C@@H]1COCCO1)S(=O)(=O)Nc1ccc2ccc3ncc(-c4cnn(C)c4)cc3c(=O)c2c1 (2.5 µM)
inactive: [1] 0 | [2] 0 | [3] 0 | [4] 0 | [5] 0 | [6] 0 | [7] 0 | [8] 0 | [9] 0 | [10] 0 | [11] 0 | [12] 0 | [13] 0 | [14] 0 | [15] 0 | [16] 0 | [17] 0 | [18] 0 | [19] 0 | [20] 0

COc1ccc2nc3ccc(OC)cc3c(SCCCN)c2c1 (10 µM)
inactive: [1] 0 | [2] 0 | [3] 0 | [4] 0 | [5] 0 | [6] 0 | [7] 0 | [8] 0 | [9] 0 | [10] 0 | [11] 0 | [12] 0 | [13] 0 | [14] 0 | [15] 0 | [16] 0 | [17] 0 | [18] 0 | [19] 0 | [20] 0

COCCNc1cc(NC(=O)N2CCCc3cc(CN4CCOCC4=O)c(C=O)nc32)ncc1C#N (10 µM)
inactive: [1] 0 | [2] 0 | [3] 0 | [4] 0 | [5] 0 | [6] 0 | [7] 0 | [8] 0 | [9] 0 | [10] 0 | [11] 0 | [12] 0 | [13] 0 | [14] 0 | [15] 0 | [16] 0 | [17] 0 | [18] 0 | [19] 0 | [20] 0

CNC(=O)CN1CCC(Oc2cc3c(Nc4cccc(Cl)c4F)ncnc3cc2OC)CC1 [Sapitinib] (10 µM)
inactive: [1] 0 | [2] 0 | [3] 0 | [4] 0 | [5] 0 | [6] 0 | [7] 0 | [8] 0 | [9] 0 | [10] 0 | [11] 0 | [12] 0 | [13] 0 | [14] 0 | [15] 0 | [16] 0 | [17] 0 | [18] 0 | [19] 0 | [20] 0
